# Values from PubChem BioAssay AID1259405 (NCATS, 2018).
# Assay: 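Silenced genes that increase secreted GFP made by CHO cells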 (primary screen)
# System: Chinese hamster CHO-K1 ovary cells with stable secreted eGFP expression
# Reagent: single siRNA against mouse genes, 0.8 pmol siRNA per well (2 µl of 400 nM stock)
# Timing: 3 days
# Measured: 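Percent of the per-plate non-targeting control median for intracellular GFP per well by laser scanning cytometry and for cell viability by ATP luminescence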
# Scale: GFP, % of control: higher = more GFP per well, higher productivity; viability (ATP), % of control: higher = more viable cells (more ATP)
# Active means: 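a knock-down is called active if GFP reaches 120% or more of non-targeting control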
# Here is one part, drawn at random, of about 50,000 deposited reagents. About 4,000 of all reagents (8%) count as active. 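Mouse siRNA library applied to hamster cells; one well for each siRNA.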 The numbers tell different reagents against one gene apart.
gene,siRNA no.,"GFP, % of control","viability (ATP), % of control",outcome
Guca2a,1,59.1,65.6,inactive
Guca2a,2,93.4,73.2,inactive
Sit1,1,43.7,21.6,inactive
Sit1,2,48.4,58.6,inactive
Sit1,3,76.7,77.5,inactive
Anapc11,1,75.2,86.1,inactive
Anapc11,2,98.4,87.5,inactive
Anapc11,3,59.1,68.3,inactive
Zic3,1,85.9,116,inactive
Zic3,2,86.6,61.7,inactive
Or8u9,1,90.2,55.2,inactive
Or8u9,2,121,95.3,active
Or8u9,3,82.5,61.9,inactive
Vps13a,1,77.5,75.3,inactive
Vps13a,2,17.6,29.6,inactive
Vps13a,3,92.6,95.6,inactive
Kcnk15,1,105,80.8,inactive
Kcnk15,2,57.2,101,inactive
Kcnk15,3,137,83.1,active
Adam30,1,94.8,82.5,inactive
Adam30,2,106,87,inactive
Adam30,3,98.3,82.2,inactive
Ddias,1,77.6,91.3,inactive
Ddias,2,77.2,90.2,inactive
Ddias,3,85.6,92.5,inactive
Htr2b,1,66.9,68.2,inactive
Htr2b,2,62.7,80.9,inactive
Htr2b,3,96.6,49.4,inactive
Nkx2-6,1,51.1,50.6,inactive
Nkx2-6,2,70.7,88.1,inactive
Cfap161,1,86.2,87.5,inactive
Cfap161,2,55.1,42.4,inactive
Cfap161,3,52.7,88.8,inactive
Fpr-rs7,1,83.1,85.3,inactive
Fpr-rs7,2,78.7,86.2,inactive
Fpr-rs7,3,51.4,78.6,inactive
Ckap2,1,74.3,84.1,inactive
Ckap2,2,78.7,80,inactive
Ckap2,3,70.7,102,inactive
Cd5l,1,89,56.6,inactive
Cd5l,2,65,62.8,inactive
Cd5l,3,98.7,66.5,inactive
Ark2n,1,112,98.2,inactive
Ark2n,2,53.1,70.1,inactive
Ark2n,3,100,70,inactive
Eif3i,1,77.8,80.7,inactive
Eif3i,2,69.7,69.6,inactive
Eif3i,3,137,132,active
Polr1a,1,151,121,active
Polr1a,2,66.3,74.7,inactive
Polr1a,3,110,83.7,inactive
Polr1a,4,53.8,85.5,inactive
Polr1a,5,85.2,86.7,inactive
Six4,1,80.5,99.5,inactive
Six4,2,74.3,81.5,inactive
Six4,3,67.9,108,inactive
Slco2a1,1,70.4,87.5,inactive
Slco2a1,2,111,85.4,inactive
Slco2a1,3,68.3,104,inactive
Fam187a,1,67.8,63.7,inactive
Fam187a,2,91.1,101,inactive
Fam187a,3,106,111,inactive
Nvl,1,92.8,99.2,inactive
Nvl,2,165,110,active
Crip1,1,120,38.9,active
Crip1,2,57.4,50.7,inactive
Snx10,1,140,144,active
Snx10,2,86.1,61.9,inactive
Slpi,1,90.8,61,inactive
Slpi,2,90,56.8,inactive
Slpi,3,37,58.8,inactive
Emc9,1,80.5,80.1,inactive
Emc9,2,138,114,active
Emc9,3,67.2,54.4,inactive
Defb2,1,65.6,74.5,inactive
Defb2,2,86.4,50.9,inactive
Defb2,3,83.5,68.6,inactive
Sptlc1,1,81.3,80,inactive
Sptlc1,2,71.8,101,inactive
Sptlc1,3,107,100,inactive
Ak5,1,52.9,25.2,inactive
Ak5,2,102,65.1,inactive
Ak5,3,95.5,93.5,inactive
Cbln1,1,60.5,62.5,inactive
Cbln1,2,49.3,61.8,inactive
Cbln1,3,62.8,67.3,inactive

Entries above whose target name starts with K or k:
gene,siRNA no.,"GFP, % of control","viability (ATP), % of control",outcome
Kcnk15,1,105,80.8,inactive
Kcnk15,2,57.2,101,inactive
Kcnk15,3,137,83.1,active
